This passage reports survivor count and T/C results from PubChem BioAssay AID248 (DTP/NCI, 2004).

Molecules are shown by their SMILES. The list shows only some results of the screen, not a fair sample: it gathers tests that were run many times, whatever their T/C, doses with no T/C, and many T/C values between a quarter and a half above the control. Other doses and runs of a compound stand elsewhere. T/C is the treated group as % of the vehicle group. Some entries give survivors of the animals treated and no T/C: the source holds a T/C of zero for them, seemingly a mark for toxic or unscored doses. Some doses without a T/C left all or most animals alive at the check, yet need not have been tolerated: survival well below the control is almost never listed, so the zero probably covers shortened survival too. Survivors were counted at the toxicity check, usually on the fifth day, unless a day is given; later deaths do not show. Schedules are NCI's codes, taken here to give the interval after Q, in days (D) or hours (H), and the number of doses after X. Some entries were tested several times; the results are listed from low to high. Some molecules as drawn cover several salts, stereoisomers or complexes of the source; a dose is that of the sample tested. Additions like (4×) give the number of equal values in this list. Where survival is the endpoint, this PubChem deposit counts one and a half times the control or more as active, and values a quarter to a half above the control carry no call in these data; other NCI protocols may use other cut-offs. Some T/C values carry the count of animals alive at the toxicity check (mostly the fifth day); where none is given, no animal had died by that day.

This test concerns L1210 leukemia ip in BDF1 mice, survival T/C. As to the kind of experiment: NCI In Vivo Anticancer Drug Screen. Data for tumor model L1210 Leukemia (intraperitoneal) in B6D2F1 (BDF1) mice. The conditions noted are these: T/C endpoint: mean survival time, higher T/C = longer survival.
Setting [1] is: dose: 400.0 mg/kg/injection, schedule: Q01DX001 (ip), vehicle: saline.
Setting [2] is: dose: 25.0 mg/kg/injection, schedule: Q04DX003 (ip), vehicle: saline.
The mark [3] stands for this setting: dose: 50.0 mg/kg/injection, schedule: Q04DX003 (ip), vehicle: saline.
Where [4] appears, read: dose: 200.0 mg/kg/injection, schedule: Q04DX003 (ip), vehicle: acetone.
Where [5] appears, read: dose: 400.0 mg/kg/injection, schedule: Q04DX003 (ip), vehicle: acetone.
[6] abbreviates: dose: 100.0 mg/kg/injection, schedule: Q04DX003 (ip), vehicle: saline.
Setting [7] is: dose: 200.0 mg/kg/injection, schedule: Q04DX003 (ip), vehicle: saline.
Setting [8] is: dose: 400.0 mg/kg/injection, schedule: Q04DX003 (ip), vehicle: saline.
Setting [9] is: dose: 100.0 mg/kg/injection, schedule: Q04DX003 (ip), vehicle: saline with Tween-80.
The mark [10] stands for this setting: dose: 200.0 mg/kg/injection, schedule: Q04DX003 (ip), vehicle: saline with Tween-80.
[11] abbreviates: dose: 400.0 mg/kg/injection, schedule: Q04DX003 (ip), vehicle: saline with Tween-80.
The mark [12] stands for this setting: dose: 50.0 mg/kg/injection, schedule: Q04DX003 (ip), vehicle: saline with Tween-80.

In the case of `O=S1(=O)CCN(c2ccccc2CC(c2c[nH]c3ccccc23)c2c[nH]c3ccccc23)CC1`, the survivor count under setting [1] is 4 of 4.
As for `O=NN(CCI)C(=O)NCCI`, the survivor count is given as 0 of 6 (dose: 300.0 mg/kg/injection, schedule: Q01DX001 (ip), vehicle: saline); 0 of 6 under setting [1]; 1 of 6 (dose: 500.0 mg/kg/injection, schedule: Q01DX001 (ip), vehicle: saline); 0 of 6 (dose: 600.0 mg/kg/injection, schedule: Q01DX001 (ip), vehicle: saline); 0 of 6 (dose: 800.0 mg/kg/injection, schedule: Q01DX001 (ip), vehicle: saline); 0 of 6 (dose: 1000.0 mg/kg/injection, schedule: Q01DX001 (ip), vehicle: saline).
For `CCCC[N+](C)(CCCC)CC(O)c1cc(-c2ccc(Cl)cc2)nc2c(Cl)cc(Cl)cc12` (stereo unspecified), the survivor count by setting is: under setting [2], 6 of 6; under setting [3], 2 of 6; (dose: 100.0 mg/kg/injection, schedule: Q04DX003 (ip), vehicle: acetone) 1 of 6; under setting [4], 0 of 6; under setting [5], 0 of 6.
For the compound `C[N+](C)(C)CCCCCCCCCC[N+](C)(C)C`, the survivor count (dose: 1.56 mg/kg/injection, schedule: Q04DX003 (ip), vehicle: saline with Tween-80) was 6 of 6; the survivor count (dose: 3.13 mg/kg/injection, schedule: Q04DX003 (ip), vehicle: saline with Tween-80) is 4 of 6; the survivor count (dose: 6.25 mg/kg/injection, schedule: Q04DX003 (ip), vehicle: saline with Tween-80) is 0 of 6 and 1 of 6; the survivor count (dose: 12.5 mg/kg/injection, schedule: Q04DX003 (ip), vehicle: saline with Tween-80) is listed as 0 of 6; the survivor count (dose: 25.0 mg/kg/injection, schedule: Q04DX003 (ip), vehicle: saline with Tween-80) is 0 of 6; the survivor count under setting [2] was 0 of 6. The survivor count is, setting by setting: under setting [3], 0 of 6; under setting [6], 0 of 6; under setting [7], 0 of 6; under setting [8], 0 of 6.
In the case of `Clc1ccc(C[P+](c2ccccc2)(c2ccccc2)c2ccccc2)c(Cl)c1`, the survivor count is on record as 2 of 6 (dose: 18.0 mg/kg/injection, schedule: Q01DX009 (ip), vehicle: saline); 2 of 6 (dose: 18.75 mg/kg/injection, schedule: Q01DX001 (ip), vehicle: water); 0 of 6 (dose: 25.0 mg/kg/injection, schedule: Q01DX009 (ip), vehicle: saline with Tween-80); 0 of 6 (dose: 36.0 mg/kg/injection, schedule: Q01DX009 (ip), vehicle: saline); 0 of 6 (dose: 37.5 mg/kg/injection, schedule: Q01DX001 (ip), vehicle: water); 0 of 6 (dose: 100.0 mg/kg/injection, schedule: Q01DX001 (ip), vehicle: saline). The survivor count by setting is: under setting [9], 0 of 6; (dose: 200.0 mg/kg/injection, schedule: Q01DX001 (ip), vehicle: saline) 0 of 6; under setting [10], 0 of 6; under setting [1], 0 of 6; under setting [11], 0 of 6.
For `CCOC(=O)c1ccc(NC(=S)NC(=O)C(C)Oc2ccccc2)cc1` (stereo unspecified), the survivor count under setting [11] is 6 of 6.
On to `CCOC(=O)/C=C/C(=O)O.[Zn+2]`, for which the survivor count runs as follows: under setting [2], 3 of 3; under setting [3], 3 of 3; under setting [6], 1 of 4; under setting [7], 0 of 4; under setting [8], 0 of 4.
As for `Cc1cccc2cc3cccc[n+]3cc12`, the survivor count is on record as 1 of 6 (dose: 12.5 mg/kg/injection, schedule: Q01DX009 (ip), vehicle: saline); 6 of 6 under setting [2]; 6 of 6 under setting [3]; 0 of 6 under setting [6]; 0 of 6 under setting [7]; 0 of 6 under setting [8].
`Cc1c([N+](=O)[O-])cc(C(C)(C)C)c(OC(=S)N(C)C)c1[N+](=O)[O-]`: for the setting “dose: 50.0 mg/kg/injection, schedule: Q04DX002 (ip), vehicle: saline with Tween-80”, the survivor count is listed as 3 of 3.
As to `COc1ccc(-c2cc(C(=O)N/N=C/c3ccc([N+](=O)[O-])cc3)c3ccc(C)cc3n2)cc1OC`, the survivor count under setting [9] is on record as 6 of 6.
As for `FC1(F)SC2C3CCC(C3)C2C1(F)F` (stereo unspecified), the survivor count was 0 of 3 (dose: 100.0 mg/kg/injection, schedule: Q04DX002 (ip), vehicle: saline with Tween-80); 0 of 3 (dose: 200.0 mg/kg/injection, schedule: Q04DX002 (ip), vehicle: saline with Tween-80); 0 of 3 (dose: 400.0 mg/kg/injection, schedule: Q04DX002 (ip), vehicle: saline with Tween-80).
Consider `CC(=O)OC1C(C)OC(OC2C=C3CCC4C(CCC5(C)C(c6ccc(=O)oc6)CCC45O)C3(C)CC2)C(OC(C)=O)C1OC(C)=O` (stereo unspecified), for which the survivor count is 3 of 6 under setting [12], 2 of 6 under setting [9], 1 of 6 under setting [10] and 0 of 6 under setting [11].
On to `CCN(CC)CCCC(C)Nc1cc(C)nc(Nc2nc3cc(Cl)c(Cl)cc3[nH]2)n1` (stereo unspecified), for which the survivor count (dose: 20.0 mg/kg/injection, schedule: Q01DX009 (ip), vehicle: saline with Tween-80) is 4 of 6.
Regarding `Oc1ccc(C=NCCN=Cc2ccc(O)cc2O)c(O)c1`, where the note is “dose: 18.0 mg/kg/injection, schedule: Q01DX009 (ip), vehicle: saline with Tween-80”, the survivor count is listed as 6 of 6.
For the compound `O=C(Nc1ccccc1)C1C2C=CC(C2)C1C(=O)Nc1ccccc1` (stereo unspecified), the survivor count under setting [11] is given as 3 of 3.
With `O=C(OC1COC(OCc2ccccc2)C(OC(=O)c2ccccc2)C1OC(=O)c1ccccc1)c1ccccc1` (stereo unspecified), the survivor count reads like this: under setting [12], 6 of 6; under setting [10], 6 of 6; under setting [11], 6 of 6.
With `c1ccc2c3csccc-3nc2c1`, the survivor count was 0 of 6 under setting [4] and 0 of 6 (2×) under setting [5].
In the case of `COc1cccc2c1C(=O)c1c(O)c3c(c(O)c1C2=O)C[C@@](O)(/C(C)=N\NC(N)=O)C[C@@H]3OC1CC(N)C(O)C(C)O1` (stereo partly specified), the T/C (dose: 8.0 mg/kg/injection, schedule: Q04DX003 (ip), vehicle: water) is 135 % of control; the T/C (dose: 12.0 mg/kg/injection, schedule: Q01DX009 (ip), vehicle: saline) was 133 % of control; the T/C (dose: 16.0 mg/kg/injection, schedule: Q04DX003 (ip), vehicle: saline) was 131 % of control [5 of 6 alive]; the T/C (dose: 16.0 mg/kg/injection, schedule: Q04DX003 (ip), vehicle: water) is 137 and 144 % of control; the T/C (dose: 25.0 mg/kg/injection, schedule: Q01DX009 (ip), vehicle: saline) was 136 % of control; the T/C under setting [2] was 149 % of control. The T/C runs as follows: (dose: 32.0 mg/kg/injection, schedule: Q04DX003 (ip), vehicle: saline) 132 % of control; (dose: 32.0 mg/kg/injection, schedule: Q04DX003 (ip), vehicle: water) 139 % of control; (dose: 64.0 mg/kg/injection, schedule: Q04DX003 (ip), vehicle: saline) 135 % of control; (dose: 64.0 mg/kg/injection, schedule: Q04DX003 (ip), vehicle: water) 133 % of control. The survivor count is given as 7 of 10 (dose: 50.0 mg/kg/injection, schedule: Q01DX009 (ip), vehicle: saline) and 0 of 6 under setting [6].
In the case of `CC(C)N(C)C(C)(C)CO`, the survivor count (dose: 400.0 mg/kg/injection, schedule: Q04DX003 (ip), vehicle: saline sonified) is listed as 1 of 6.
For `CCC1(CC)C(=O)NC(=O)N(C)C1=O`, the survivor count (dose: 400.0 mg/kg/injection, schedule: Q04DX002 (ip), vehicle: Klucel (hydroxypropylcellulose) (HPC)) was 3 of 3.
